Results are given in words; binding and its absence hold for the method and conditions named. For some assays here: Binding seen in cells or lysates may run through a third protein. Some binding calls cover weakened binding; strength is not graded here. For some assays here: Sequences can lack the tags named with a protein. One block for each substance: values may come before it.
Assays:
[1] = target: T1, VE-Cadherin (mouse (endogenous in left ventricle and CMECs)) (UniProt P55284); assay: co-IP; mouse left ventricle; protein A/G-magnetic beads conjugated with anti-VE-Cadherin antibody, 30 min at RT; blot for β-Catenin; sham or I/R injury, AAV9-NC or AAV9-HINT2, Ru360 or spermine
T1 sequence: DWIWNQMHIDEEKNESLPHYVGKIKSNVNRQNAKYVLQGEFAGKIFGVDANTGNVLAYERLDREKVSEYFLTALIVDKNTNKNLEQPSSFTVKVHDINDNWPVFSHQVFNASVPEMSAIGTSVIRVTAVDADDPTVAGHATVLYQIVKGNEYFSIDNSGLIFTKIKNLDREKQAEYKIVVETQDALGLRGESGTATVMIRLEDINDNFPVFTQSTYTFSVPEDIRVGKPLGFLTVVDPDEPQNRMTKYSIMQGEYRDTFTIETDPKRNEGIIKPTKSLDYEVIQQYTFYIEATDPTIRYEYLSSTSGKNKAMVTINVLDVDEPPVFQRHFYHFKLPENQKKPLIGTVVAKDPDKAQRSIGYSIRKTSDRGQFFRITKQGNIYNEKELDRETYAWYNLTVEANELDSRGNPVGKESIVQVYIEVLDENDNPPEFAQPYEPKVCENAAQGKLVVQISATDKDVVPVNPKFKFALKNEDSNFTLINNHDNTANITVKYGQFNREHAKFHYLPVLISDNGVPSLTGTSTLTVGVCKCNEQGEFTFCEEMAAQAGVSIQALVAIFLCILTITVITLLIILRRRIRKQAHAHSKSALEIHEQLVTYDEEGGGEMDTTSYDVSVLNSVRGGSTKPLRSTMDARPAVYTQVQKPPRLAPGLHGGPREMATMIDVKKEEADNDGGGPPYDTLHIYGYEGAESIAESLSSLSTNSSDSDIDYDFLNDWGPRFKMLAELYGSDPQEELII

The chains behind the UniProt entries cited, without tags or fusion partners. Residues count along the entry.
UniProt Q8K1M6: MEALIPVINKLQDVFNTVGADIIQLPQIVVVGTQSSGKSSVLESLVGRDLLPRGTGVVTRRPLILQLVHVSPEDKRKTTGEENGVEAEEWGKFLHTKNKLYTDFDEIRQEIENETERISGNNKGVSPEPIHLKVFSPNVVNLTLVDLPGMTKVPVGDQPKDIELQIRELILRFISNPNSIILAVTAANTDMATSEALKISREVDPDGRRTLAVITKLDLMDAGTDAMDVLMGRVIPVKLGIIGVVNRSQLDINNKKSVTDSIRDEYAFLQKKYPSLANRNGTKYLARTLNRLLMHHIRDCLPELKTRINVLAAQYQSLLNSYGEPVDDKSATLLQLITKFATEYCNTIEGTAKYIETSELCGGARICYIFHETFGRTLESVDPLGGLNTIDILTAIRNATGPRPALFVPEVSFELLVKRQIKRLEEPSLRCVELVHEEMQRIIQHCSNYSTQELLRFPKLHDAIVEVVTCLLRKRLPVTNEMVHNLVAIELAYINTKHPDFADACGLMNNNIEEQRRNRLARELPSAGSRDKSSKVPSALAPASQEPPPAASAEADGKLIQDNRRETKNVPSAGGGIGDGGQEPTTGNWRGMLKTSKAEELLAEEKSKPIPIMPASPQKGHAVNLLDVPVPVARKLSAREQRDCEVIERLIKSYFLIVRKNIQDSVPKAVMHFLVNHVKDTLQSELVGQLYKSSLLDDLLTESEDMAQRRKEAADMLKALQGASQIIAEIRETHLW
UniProt Q02248: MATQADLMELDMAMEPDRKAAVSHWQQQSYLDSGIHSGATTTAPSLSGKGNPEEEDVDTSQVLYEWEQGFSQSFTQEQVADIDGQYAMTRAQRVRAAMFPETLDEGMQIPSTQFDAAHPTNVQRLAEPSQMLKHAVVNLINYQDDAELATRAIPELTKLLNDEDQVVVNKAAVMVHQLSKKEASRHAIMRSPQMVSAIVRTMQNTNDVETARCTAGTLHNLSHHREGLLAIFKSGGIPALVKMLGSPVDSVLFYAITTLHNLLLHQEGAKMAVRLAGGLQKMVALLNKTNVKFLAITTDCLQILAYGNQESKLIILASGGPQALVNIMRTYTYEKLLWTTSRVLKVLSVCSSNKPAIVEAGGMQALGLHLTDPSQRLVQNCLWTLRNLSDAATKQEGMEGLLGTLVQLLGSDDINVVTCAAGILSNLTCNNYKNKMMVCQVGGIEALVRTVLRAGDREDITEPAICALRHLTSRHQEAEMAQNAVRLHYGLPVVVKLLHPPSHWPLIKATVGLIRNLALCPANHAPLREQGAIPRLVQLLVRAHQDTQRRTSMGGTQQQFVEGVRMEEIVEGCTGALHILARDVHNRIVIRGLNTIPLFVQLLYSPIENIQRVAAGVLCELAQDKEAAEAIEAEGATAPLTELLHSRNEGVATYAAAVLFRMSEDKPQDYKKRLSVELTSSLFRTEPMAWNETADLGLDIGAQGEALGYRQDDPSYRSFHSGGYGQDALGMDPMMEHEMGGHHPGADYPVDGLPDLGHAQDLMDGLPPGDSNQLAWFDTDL
UniProt Q3UMR5, residues 50-350: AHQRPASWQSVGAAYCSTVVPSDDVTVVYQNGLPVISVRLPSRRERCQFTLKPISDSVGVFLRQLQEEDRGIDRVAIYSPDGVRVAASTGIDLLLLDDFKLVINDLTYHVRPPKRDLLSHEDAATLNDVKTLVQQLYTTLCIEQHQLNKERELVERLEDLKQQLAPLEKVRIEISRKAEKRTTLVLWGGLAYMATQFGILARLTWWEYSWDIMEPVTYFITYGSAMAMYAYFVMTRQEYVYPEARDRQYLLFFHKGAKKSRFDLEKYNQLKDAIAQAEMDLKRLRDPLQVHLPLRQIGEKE

[2] = target: T1, VE-Cadherin (mouse (endogenous in left ventricle and CMECs)); assay: co-IP; CMEC lysate; protein A/G-magnetic beads conjugated with anti-VE-Cadherin antibody, 30 min at RT; blot for β-Catenin; OGD/R injury, ADV-NC or ADV-HINT2, Ru360 or spermine
[3] = target: DRP1 (mouse (endogenous in CMECs)) (UniProt Q8K1M6); assay: native gel or EMSA; nondenatured CMEC lysate (Native Lysis Buffer, no heating) on polyacrylamide gels without denaturants, blot for DRP1; oligomers standardized to the monomer; OGD/R injury, ADV-NC or ADV-HINT2, Ru360
[4] = target: T2, Flag-tagged HINT2 mutant (Leu76, Phe78 and Asp80 mutated into Ala) (mouse) (UniProt Q9D0S9); assay: co-IP; CMEC lysate (Cell Lysis Buffer for IP) incubated with protein A/G-magnetic beads conjugated with anti-Flag antibody for 30 min at RT; blot for MCU; rabbit IgG as negative control
T2 sequence: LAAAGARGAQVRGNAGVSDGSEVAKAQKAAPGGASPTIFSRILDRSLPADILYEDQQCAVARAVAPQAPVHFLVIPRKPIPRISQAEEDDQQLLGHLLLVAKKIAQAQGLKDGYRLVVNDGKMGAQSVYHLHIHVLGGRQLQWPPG

[5] = target: Flag-tagged HINT2 (histidine triad nucleotide-binding protein 2) (mouse) (UniProt Q9D0S9); assay: as above

Substance: β-Catenin (from UniProt Q02248 1-781)
binding [1]: binds
binding [2]: binds

Substance: DRP1 (from UniProt Q8K1M6 1-736)
binding [3]: binds

binding [4]: no binding
binding [5]: binds
Substance: Mitochondrial calcium uniporter (MCU) (from UniProt Q3UMR5 50-350)
